# Experimental data from patent US20240382590A1, “NOVEL TUMOR-SPECIFIC ANTIGENS FOR CANCER STEM CELLS AND USES THEREOF” (UNIVERSITÉ DE MONTRÉAL, priority 2021, published 2024).
# What was measured is the transcript of the gene that encodes the chain shown.
# Test system: cancer samples from TCGA
# Assay: RNA expression of MAP-coding sequences in TCGA cancer samples (RPHM)
# Design: species or system human
# Details: MCS expression in TCGA cancer types
sequence,measurement,setting,value
AKKKENITY (listed as Homo sapiens) [paMAP],Number of cancer types with >= 10% samples above 2 RPHM,"Table 1B, paMAPs",4
ALLEGVNTV (listed as Homo sapiens) [previously reported saMAP],Number of cancer types with >= 10% samples above 2 RPHM,"Table 1D, saMAPs",3
ALLEGVNTVVV (listed as Homo sapiens) [saMAP],Number of cancer types with >= 10% samples above 2 RPHM,"Table 1D, saMAPs",3
ALYPQPPTV (listed as Homo sapiens) [paMAP],Number of cancer types with >= 10% samples above 2 RPHM,"Table 1B, paMAPs",2
AMYHALEKA (listed as Homo sapiens) [saMAP],Number of cancer types with >= 10% samples above 2 RPHM,"Table 1D, saMAPs",24
ASTPASSEL (listed as Homo sapiens) [saMAP],Number of cancer types with >= 10% samples above 2 RPHM,"Table 1D, saMAPs",25
EEEIHSPTL (listed as Homo sapiens) [paMAP],Number of cancer types with >= 10% samples above 2 RPHM,"Table 1B, paMAPs",2
FAYPNQKDF (listed as Homo sapiens) [saMAP],Number of cancer types with >= 10% samples above 2 RPHM,"Table 1D, saMAPs",3
FAYPNQKVTF (listed as Homo sapiens) [paMAP],Number of cancer types with >= 10% samples above 2 RPHM,"Table 1B, paMAPs",2
FGDGKFSEV (listed as Homo sapiens) [saMAP],Number of cancer types with >= 10% samples above 2 RPHM,"Table 1D, saMAPs",28
FHSQNSPIRY (listed as Homo sapiens) [paMAP],Number of cancer types with >= 10% samples above 2 RPHM,"Table 1B, paMAPs",0
FLLPGVLLSEA (listed as Homo sapiens) [previously reported saMAP from UGT3A2],Number of cancer types with >= 10% samples above 2 RPHM,"Table 1D, saMAPs",5
FTEEDLHFVLY (listed as Homo sapiens) [paMAP],Number of cancer types with >= 10% samples above 2 RPHM,"Table 1B, paMAPs",1
GEHLVSVTL (listed as Homo sapiens) [paMAP],Number of cancer types with >= 10% samples above 2 RPHM,"Table 1B, paMAPs",3
GEIKTFSDL (listed as Homo sapiens) [paMAP],Number of cancer types with >= 10% samples above 2 RPHM,"Table 1B, paMAPs",4
GKFQGLIEKF (listed as Homo sapiens) [saMAP],Number of cancer types with >= 10% samples above 2 RPHM,"Table 1D, saMAPs",29
GKLDNTNEY (listed as Homo sapiens) [paMAP],Number of cancer types with >= 10% samples above 2 RPHM,"Table 1B, paMAPs",3
GLYDGREHSV (listed as Homo sapiens) [previously reported paMAP],Number of cancer types with >= 10% samples above 2 RPHM,"Table 1B, paMAPs",1
GQAHPQGSF (listed as Homo sapiens) [paMAP],Number of cancer types with >= 10% samples above 2 RPHM,"Table 1B, paMAPs",4
GQFDRPAGV (listed as Homo sapiens) [paMAP],Number of cancer types with >= 10% samples above 2 RPHM,"Table 1B, paMAPs",3
GQFLVKSGY (listed as Homo sapiens) [saMAP],Number of cancer types with >= 10% samples above 2 RPHM,"Table 1D, saMAPs",12
GQITHNTSF (listed as Homo sapiens) [paMAP],Number of cancer types with >= 10% samples above 2 RPHM,"Table 1B, paMAPs",9
GQKENVVVY (listed as Homo sapiens) [previously reported saMAP],Number of cancer types with >= 10% samples above 2 RPHM,"Table 1D, saMAPs",23
HPLPGLILEW (listed as Homo sapiens) [saMAP],Number of cancer types with >= 10% samples above 2 RPHM,"Table 1D, saMAPs",25
IPMKIYLW (listed as Homo sapiens) [paMAP],Number of cancer types with >= 10% samples above 2 RPHM,"Table 1B, paMAPs",4
ISMCDLVY (listed as Homo sapiens) [paMAP],Number of cancer types with >= 10% samples above 2 RPHM,"Table 1B, paMAPs",0
KHFDSPRGVAF (listed as Homo sapiens) [paMAP],Number of cancer types with >= 10% samples above 2 RPHM,"Table 1B, paMAPs",3
KLAQIIRQV (listed as Homo sapiens) [paMAP],Number of cancer types with >= 10% samples above 2 RPHM,"Table 1B, paMAPs",5
KLDSYIIPY (listed as Homo sapiens) [paMAP],Number of cancer types with >= 10% samples above 2 RPHM,"Table 1B, paMAPs",1
KLQEKIQEL (listed as Homo sapiens) [previously reported saMAP],Number of cancer types with >= 10% samples above 2 RPHM,"Table 1D, saMAPs",28
KMSELQTYV (listed as Homo sapiens) [previously reported saMAP],Number of cancer types with >= 10% samples above 2 RPHM,"Table 1D, saMAPs",32
KQFEGTVEI (listed as Homo sapiens) [previously reported saMAP],Number of cancer types with >= 10% samples above 2 RPHM,"Table 1D, saMAPs",17
KQMENDIQLY (listed as Homo sapiens) [saMAP],Number of cancer types with >= 10% samples above 2 RPHM,"Table 1D, saMAPs",22
LALGNTKEL (listed as Homo sapiens) [previously reported saMAP],Number of cancer types with >= 10% samples above 2 RPHM,"Table 1D, saMAPs",8
LPMWKALLF (listed as Homo sapiens) [paMAP],Number of cancer types with >= 10% samples above 2 RPHM,"Table 1B, paMAPs",5
LPSGETIAKW (listed as Homo sapiens) [paMAP],Number of cancer types with >= 10% samples above 2 RPHM,"Table 1B, paMAPs",7
MAWNGILHL (listed as Homo sapiens) [saMAP],Number of cancer types with >= 10% samples above 2 RPHM,"Table 1D, saMAPs",1
MKFGNQVSGLF (listed as Homo sapiens) [paMAP],Number of cancer types with >= 10% samples above 2 RPHM,"Table 1B, paMAPs",1
NPIGDTGVKF (listed as Homo sapiens) [previously reported paMAP],Number of cancer types with >= 10% samples above 2 RPHM,"Table 1B, paMAPs",10
NTENYILWGY (listed as Homo sapiens) [paMAP],Number of cancer types with >= 10% samples above 2 RPHM,"Table 1B, paMAPs",2
NTLSESYIY (listed as Homo sapiens) [paMAP],Number of cancer types with >= 10% samples above 2 RPHM,"Table 1B, paMAPs",3
QPLPEPLQLW (listed as Homo sapiens) [paMAP],Number of cancer types with >= 10% samples above 2 RPHM,"Table 1B, paMAPs",1
QPLPQPLELW (listed as Homo sapiens) [paMAP],Number of cancer types with >= 10% samples above 2 RPHM,"Table 1B, paMAPs",6
QTELNNSKQEY (listed as Homo sapiens) [saMAP],Number of cancer types with >= 10% samples above 2 RPHM,"Table 1D, saMAPs",23
RLQHEPPHPV (listed as Homo sapiens) [paMAP],Number of cancer types with >= 10% samples above 2 RPHM,"Table 1B, paMAPs",10
RLWNETVEL (listed as Homo sapiens) [previously reported saMAP],Number of cancer types with >= 10% samples above 2 RPHM,"Table 1D, saMAPs",32
RLWNETVELF (listed as Homo sapiens) [saMAP],Number of cancer types with >= 10% samples above 2 RPHM,"Table 1D, saMAPs",31
RPARPPAGL (listed as Homo sapiens) [paMAP],Number of cancer types with >= 10% samples above 2 RPHM,"Table 1B, paMAPs",5
RTDTGKRVLY (listed as Homo sapiens) [paMAP],Number of cancer types with >= 10% samples above 2 RPHM,"Table 1B, paMAPs",0
SANVSKVSF (listed as Homo sapiens) [previously reported saMAP],Number of cancer types with >= 10% samples above 2 RPHM,"Table 1D, saMAPs",18
SAQGKPTYF (listed as Homo sapiens) [paMAP],Number of cancer types with >= 10% samples above 2 RPHM,"Table 1B, paMAPs",2
SETHPPEVAL (listed as Homo sapiens) [saMAP],Number of cancer types with >= 10% samples above 2 RPHM,"Table 1D, saMAPs",3
SEVSADKLVAL (listed as Homo sapiens) [saMAP],Number of cancer types with >= 10% samples above 2 RPHM,"Table 1D, saMAPs",22
SKLRSTGQSF (listed as Homo sapiens) [paMAP],Number of cancer types with >= 10% samples above 2 RPHM,"Table 1B, paMAPs",1
SLLGSSEILEV (listed as Homo sapiens) [paMAP],Number of cancer types with >= 10% samples above 2 RPHM,"Table 1B, paMAPs",1
SPQEASGVRW (listed as Homo sapiens) [saMAP],Number of cancer types with >= 10% samples above 2 RPHM,"Table 1D, saMAPs",3
SQNSPIRY (listed as Homo sapiens) [paMAP],Number of cancer types with >= 10% samples above 2 RPHM,"Table 1B, paMAPs",0
SQSSLMLYL (listed as Homo sapiens) [paMAP],Number of cancer types with >= 10% samples above 2 RPHM,"Table 1B, paMAPs",0
TASDLNLKV (listed as Homo sapiens) [previously reported paMAP],Number of cancer types with >= 10% samples above 2 RPHM,"Table 1B, paMAPs",3
TPSPIIQQL (listed as Homo sapiens) [previously reported saMAP],Number of cancer types with >= 10% samples above 2 RPHM,"Table 1D, saMAPs",30
VAKPPGTAF (listed as Homo sapiens) [paMAP],Number of cancer types with >= 10% samples above 2 RPHM,"Table 1B, paMAPs",0
VLMDEGAVLTL (listed as Homo sapiens) [previously reported paMAP],Number of cancer types with >= 10% samples above 2 RPHM,"Table 1B, paMAPs",4
VSDQQNGTY (listed as Homo sapiens) [paMAP],Number of cancer types with >= 10% samples above 2 RPHM,"Table 1B, paMAPs",3
VTLSTYFHV (listed as Homo sapiens) [paMAP],Number of cancer types with >= 10% samples above 2 RPHM,"Table 1B, paMAPs",1
YKRMKLDSY (listed as Homo sapiens) [paMAP],Number of cancer types with >= 10% samples above 2 RPHM,"Table 1B, paMAPs",7
YLLNCHLLI (listed as Homo sapiens) [saMAP],Number of cancer types with >= 10% samples above 2 RPHM,"Table 1D, saMAPs",3
YSDQKPPYSY (listed as Homo sapiens) [paMAP],Number of cancer types with >= 10% samples above 2 RPHM,"Table 1B, paMAPs",5
YSIYPMRNL (listed as Homo sapiens) [paMAP],Number of cancer types with >= 10% samples above 2 RPHM,"Table 1B, paMAPs",2
YTPFPSYGHY (listed as Homo sapiens) [paMAP],Number of cancer types with >= 10% samples above 2 RPHM,"Table 1B, paMAPs",1
